Record: PubChem BioAssay AID1224830 (NIAID, 2016)

Screen: 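Genes whose knock-down alters the TNF-alpha reporter response to LPS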 (primary screen)
Cell system: human THP-1 monocytic leukaemia cells, TNF dual-luciferase reporter clone, PMA-differentiated to macrophage-like cells
Knock-down reagent: siRNA pool against human genes, 50 nM
Time to read-out: LPS for 4 h, given about 3 days after siRNA transfection
Treatment: bacterial LPS (TLR4 ligand), 10 ng/ml
Measured: 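TNF firefly reporter luminescence divided by renilla, normalised to the plate median, then turned into a robust z-score for each replicate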
Reading the numbers: TNF reporter robust z-score: higher = stronger TNF reporter response to LPS
Active means: 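a well is active when its z-score exceeds 2.8 or falls below -1.5; control wells carry no call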
The deposit covers about 18,000 reagents; this is a part drawn at random. About 2,900 of all reagents (16%) count as active. 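Calls are made per well; low scores hint the gene aids the LPS response, high scores that it dampens it.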 Unmarked entries are inactive. Repeated entries: four replicate wells of each siRNA pool.

| target gene | TNF reporter robust z-score |
| --- | --- |
| CDKN2AIP (CDKN2A interacting protein) | 0.14 |
| CDKN2AIP (CDKN2A interacting protein) | 1.08 |
| CDKN2AIP (CDKN2A interacting protein) | 1.05 |
| CDKN2AIP (CDKN2A interacting protein) | 0.97 |
| MAP2 (microtubule associated protein 2) | -0.67 |
| MAP2 (microtubule associated protein 2) | -0.45 |
| MAP2 (microtubule associated protein 2) | -0.59 |
| MAP2 (microtubule associated protein 2) | -0.6 |
| SLC45A1 | 0.23 |
| SLC45A1 | -0.08 |
| SLC45A1 | -0.5 |
| SLC45A1 | -0.62 |
| GAGE5 (G antigen 5) | 0.45 |
| GAGE5 (G antigen 5) | -0.02 |
| GAGE5 (G antigen 5) | 0.25 |
| GAGE5 (G antigen 5) | 0.29 |
| CCL7 (C-C motif chemokine ligand 7) | -1.48 |
| CCL7 (C-C motif chemokine ligand 7) | -1.47 |
| CCL7 (C-C motif chemokine ligand 7) | -1.26 |
| CCL7 (C-C motif chemokine ligand 7) | 0.42 |
| RSL24D1 (ribosomal L24 domain containing 1) | -0.14 |
| RSL24D1 (ribosomal L24 domain containing 1) | 0.22 |
| RSL24D1 (ribosomal L24 domain containing 1) | -0.13 |
| RSL24D1 (ribosomal L24 domain containing 1) | -0.09 |
| HSD3B2 | -0.33 |
| HSD3B2 | 0.14 |
| HSD3B2 | -0.26 |
| HSD3B2 | 0.28 |
| AGO1 (argonaute RISC component 1) | 1.12 |
| AGO1 (argonaute RISC component 1) | 1.81 |
| AGO1 (argonaute RISC component 1) | 0.76 |
| AGO1 (argonaute RISC component 1) | 1.21 |
| SACS (sacsin molecular chaperone) | 0.1 |
| SACS (sacsin molecular chaperone) | 0.25 |
| SACS (sacsin molecular chaperone) | 0.18 |
| SACS (sacsin molecular chaperone) | 0.19 |
| TBC1D13 (TBC1 domain family member 13) | 0.42 |
| TBC1D13 (TBC1 domain family member 13) | 0.2 |
| TBC1D13 (TBC1 domain family member 13) | -0.93 |
| TBC1D13 (TBC1 domain family member 13) | 0.93 |
| SCARF2 (scavenger receptor class F member 2) | 1.02 |
| SCARF2 (scavenger receptor class F member 2) | 3.72 (active) |
| SCARF2 (scavenger receptor class F member 2) | 1.91 |
| SCARF2 (scavenger receptor class F member 2) | 0.44 |
| KHNYN (KH and NYN domain containing) | 0.19 |
| KHNYN (KH and NYN domain containing) | -0.43 |
| KHNYN (KH and NYN domain containing) | -0.85 |
| KHNYN (KH and NYN domain containing) | -0.79 |
| H2BC9 (H2B clustered histone 9) | 1.95 |
| H2BC9 (H2B clustered histone 9) | 1.74 |
| H2BC9 (H2B clustered histone 9) | -0.2 |
| H2BC9 (H2B clustered histone 9) | 1.34 |
| DDX56 (DEAD-box helicase 56) | 0.22 |
| DDX56 (DEAD-box helicase 56) | 1.17 |
| DDX56 (DEAD-box helicase 56) | 0.09 |
| DDX56 (DEAD-box helicase 56) | 1.35 |
| BCL10 (BCL10 immune signaling adaptor) | -0.57 |
| BCL10 (BCL10 immune signaling adaptor) | -0.06 |
| BCL10 (BCL10 immune signaling adaptor) | 0.63 |
| BCL10 (BCL10 immune signaling adaptor) | -0.55 |
| ERAL1 (Era like 12S mitochondrial rRNA chaperone 1) | 2.27 |
| ERAL1 (Era like 12S mitochondrial rRNA chaperone 1) | 1.39 |
| ERAL1 (Era like 12S mitochondrial rRNA chaperone 1) | 1.35 |
| ERAL1 (Era like 12S mitochondrial rRNA chaperone 1) | 1.95 |
| FHL1 (four and a half LIM domains 1) | 2.16 |
| FHL1 (four and a half LIM domains 1) | -0.63 |
| FHL1 (four and a half LIM domains 1) | 0.6 |
| FHL1 (four and a half LIM domains 1) | 0.26 |
| LINC01565 (long independently transcribed non-coding RNA 1565) | -0.76 |
| LINC01565 (long independently transcribed non-coding RNA 1565) | -0.6 |
| LINC01565 (long independently transcribed non-coding RNA 1565) | 1.7 |
| LINC01565 (long independently transcribed non-coding RNA 1565) | 1.51 |
| ROBO3 (roundabout guidance receptor 3) | 0.03 |
| ROBO3 (roundabout guidance receptor 3) | 0.37 |
| ROBO3 (roundabout guidance receptor 3) | -0.24 |
| ROBO3 (roundabout guidance receptor 3) | 0.58 |
| TMEM150C (transmembrane protein 150C) | 0.55 |
| TMEM150C (transmembrane protein 150C) | 1.68 |
| TMEM150C (transmembrane protein 150C) | 1.63 |
| TMEM150C (transmembrane protein 150C) | -0.64 |
| SGCB (sarcoglycan beta) | 0.64 |
| SGCB (sarcoglycan beta) | 1.83 |
| SGCB (sarcoglycan beta) | 0.88 |
| SGCB (sarcoglycan beta) | 0.73 |
| TARS1 (threonyl-tRNA synthetase 1) | 2.52 |
| TARS1 (threonyl-tRNA synthetase 1) | 2.65 |
| TARS1 (threonyl-tRNA synthetase 1) | 2.06 |
| TARS1 (threonyl-tRNA synthetase 1) | 2.44 |
| OR4A15 (olfactory receptor family 4 subfamily A member 15) | 0.69 |
| OR4A15 (olfactory receptor family 4 subfamily A member 15) | 0.8 |
| OR4A15 (olfactory receptor family 4 subfamily A member 15) | 1.29 |
| OR4A15 (olfactory receptor family 4 subfamily A member 15) | 2.16 |
| OR5C1 (olfactory receptor family 5 subfamily C member 1) | 1.71 |
| OR5C1 (olfactory receptor family 5 subfamily C member 1) | 0.98 |
| OR5C1 (olfactory receptor family 5 subfamily C member 1) | -0.31 |
| OR5C1 (olfactory receptor family 5 subfamily C member 1) | 0.54 |
| ABCA6 (ATP binding cassette subfamily A member 6) | -0.56 |
| ABCA6 (ATP binding cassette subfamily A member 6) | -0.61 |
| ABCA6 (ATP binding cassette subfamily A member 6) | -0.57 |
| ABCA6 (ATP binding cassette subfamily A member 6) | -0.1 |
| DOHH (deoxyhypusine hydroxylase) | -0.58 |
| DOHH (deoxyhypusine hydroxylase) | -0.65 |
| DOHH (deoxyhypusine hydroxylase) | -0.51 |
| DOHH (deoxyhypusine hydroxylase) | -0.38 |
| EFHB (EF-hand domain family member B) | -1.25 |
| EFHB (EF-hand domain family member B) | 0.02 |
| EFHB (EF-hand domain family member B) | 0.07 |
| EFHB (EF-hand domain family member B) | 0.25 |
| TMEM217 (transmembrane protein 217) | -0.75 |
| TMEM217 (transmembrane protein 217) | -0.59 |
| TMEM217 (transmembrane protein 217) | -0.39 |
| TMEM217 (transmembrane protein 217) | -0.27 |

6 consecutive entries already listed, for reference:
| target gene | TNF reporter robust z-score |
| --- | --- |
| GAGE5 (G antigen 5) | 0.29 |
| CCL7 (C-C motif chemokine ligand 7) | -1.48 |
| CCL7 (C-C motif chemokine ligand 7) | -1.47 |
| CCL7 (C-C motif chemokine ligand 7) | -1.26 |
| CCL7 (C-C motif chemokine ligand 7) | 0.42 |
| RSL24D1 (ribosomal L24 domain containing 1) | -0.14 |
